# Results from PubChem BioAssay (NCATS).
# Chains of the proteins cited; added tags and fusions are not shown.
# UniProt P07947, whole entry, looked up: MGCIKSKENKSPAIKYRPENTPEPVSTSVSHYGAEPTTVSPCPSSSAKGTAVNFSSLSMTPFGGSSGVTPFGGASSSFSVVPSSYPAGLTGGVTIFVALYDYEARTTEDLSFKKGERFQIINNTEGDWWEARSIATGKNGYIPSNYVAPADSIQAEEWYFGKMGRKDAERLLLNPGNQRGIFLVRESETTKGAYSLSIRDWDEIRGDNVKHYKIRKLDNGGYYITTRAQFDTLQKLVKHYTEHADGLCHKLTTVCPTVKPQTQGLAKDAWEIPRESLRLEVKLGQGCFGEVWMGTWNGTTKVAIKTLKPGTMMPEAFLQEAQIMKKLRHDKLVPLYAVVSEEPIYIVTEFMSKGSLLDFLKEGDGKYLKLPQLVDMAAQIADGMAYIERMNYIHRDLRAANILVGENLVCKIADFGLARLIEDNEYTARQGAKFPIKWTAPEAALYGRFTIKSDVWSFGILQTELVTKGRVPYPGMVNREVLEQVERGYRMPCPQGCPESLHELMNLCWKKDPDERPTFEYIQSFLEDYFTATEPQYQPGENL
# UniProt P36969, whole entry, looked up: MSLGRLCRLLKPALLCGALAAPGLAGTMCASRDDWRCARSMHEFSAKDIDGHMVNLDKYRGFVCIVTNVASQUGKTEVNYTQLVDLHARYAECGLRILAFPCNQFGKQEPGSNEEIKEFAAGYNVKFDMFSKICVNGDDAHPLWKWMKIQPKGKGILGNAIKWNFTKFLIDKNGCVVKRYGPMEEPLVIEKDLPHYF
# This list was built around the results that the source calls inconclusive (neither active nor inactive); the mix of calls is not that of the screen. A potency beside an inconclusive call is a rough fit, not a confirmed value. Activity calls are given as the source filed them. Calls follow the shape of the dose curve; as a rule, active = well fitted curve in the direction sought with a large enough effect; inconclusive = small, poorly fitted or top-dose-only effect, or another doubt; inactive = no such curve, though single readings can be large; an effect the other way counts as inactive or inconclusive. Numbered stars: 1 amine (or outer) side, 2 acyl side, 3 side chain; on linkers, the order of the positions; unused ones are H or OH. Bridge positions count the residues as written; N and C are the ends. Square brackets hold non-standard residues; d marks the D form. Peptide text beside a SMILES is read from it. I, II: the chains in the order shown. ξ: configuration not given here. Actinocin(9to1) = Cc1c2oc3c(C)ccc(C(=O)[*:1])c3nc-2c(C(=O)[*:2])c(N)c1=O; ξNMeV = CNC(C(=O)O)C(C)C; ξV = CC(C)C(N)C(=O)O; Sar = CNCC(=O)O
# How the values were obtained:
# [1] = qHTS of pediatric cancer cell lines to identify multiple opportunities for drug repurposing: Confirmatory screen for BT-12 cells (AID 1347112);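 also: viability read after 48 h of compound exposure; nearly all actives have a fitted effect of over 55% in size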
# Outline: (§1)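 Cells (500-1,000/well) rested 5 h, then received compounds for 48 h; metabolically active cells were measured by CellTiter-Glo luminescence. Final concentrations spanned up to 46 µM (MIPE, 11-point) or 0.59 nM-46 µM (NPC, 8-point) in primary screens, 11-point in follow-ups.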
# [2] = qHTS of pediatric cancer cell lines to identify multiple opportunities for drug repurposing: Confirmatory screen for DAOY cells (AID 1347114); also: nearly all actives have a fitted effect of over 65% in size
# Outline: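 Viability measured as metabolically active cells via CellTiter-Glo luminescence following 48 hours of compound exposure, 11-point dilutions in confirmatory testing. 500-1,000 cells/well plated 5 hours before dosing; controls were DMSO and 2.3 µM bortezomib.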
# [3] = qHTS of pediatric cancer cell lines to identify multiple opportunities for drug repurposing: Confirmatory screen for NB-EBc1 cells (AID 1347115);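 also: cells exposed to compound for 48 h before the viability read; nearly all actives have a fitted effect of over 45% in size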
# Outline: as §1
# [4] = qHTS of pediatric cancer cell lines to identify multiple opportunities for drug repurposing: Confirmatory screen for control Hh wild type fibroblast cells (AID 1347121); also: nearly all actives have a fitted effect of over 70% in size
# Outline: as §1
# [5] = qHTS of pediatric cancer cell lines to identify multiple opportunities for drug repurposing: Confirmatory screen for U-2 OS cells (AID 1347122); also: nearly all actives have a fitted effect of over 65% in size
# Outline: as §1
# [6] = qHTS of pediatric cancer cell lines to identify multiple opportunities for drug repurposing: Confirmatory screen for Rh18 cells (AID 1347125); also: nearly all actives have a fitted effect of over 55% in size
# Outline: as §1
# [7] = qHTS of pediatric cancer cell lines to identify multiple opportunities for drug repurposing: Confirmatory screen for Rh30 cells (AID 1347126); conditions: Rh30 rhabdomyosarcoma cell viability; activity change, negative = cytotoxic: at 45.9 µM (top of the series); also: nearly all actives have a fitted effect of over 55% in size
# Outline: as §1
# [8] = Quantitative High-Throughput drug screen in 47 multiple myeloma cell lines against the NCATS MIPE library collection: Delta47_JCRB cell viability assay (AID 1918925; also: nearly all actives have a fitted effect of over 45% in size)
# Outline: (§2)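 Myeloma cells (500 per well) were exposed to MIPE 4.0 compounds by pin transfer and incubated 48 hours at 37C, 5% CO2. Viability was read as ATP by CellTiter-Glo luminescence, normalised to DMSO (100%) and media-only (0%) wells.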
# [9] = Quantitative High-Throughput drug screen in 47 multiple myeloma cell lines against the NCATS MIPE library collection: NCIH929_DSMZ cell viability assay (AID 1918978); also: nearly all actives have a fitted effect of over 35% in size
# Outline: (§3)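 Inhibition of viability over 48 h was scored by ATP content (CellTiter-Glo) in 500-cell wells. Zero and full viability were defined by media-only and DMSO-only wells.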
# C33A = assay: Primary qHTS to identify gynecologic anti-cancer compounds using libraries of approved drugs and bioactive compounds (AID 1345084); conditions: Gynecologic cancer cell panel viability, ATPlite luminescence, 48 h; series mostly up to 57.5 µM; also: nearly all actives have a fitted effect of over 55% in size
# Outline: (§4)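 Measured: luminescence after ATPlite addition (15 min, RT). Exposure: 48 h, 37 C, 5% CO2.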
# Es-2 = assay: as above; conditions: Gynecologic cancer cell panel viability, ATPlite luminescence, 48 h; series mostly up to 57.5 µM
# Outline: as §4
# Tov112D = assay: as above; conditions: Gynecologic cancer cell panel viability, ATPlite luminescence, 48 h; series mostly up to 57.5 µM
# Outline: as §4
# [10] = target: Tyrosine-protein kinase Yes (Homo sapiens) (UniProt P07947); assay: qHTS for small molecule inhibitors of Yes1 kinase: Primary Screen (AID 686947); also: nearly all actives have a fitted effect of over 60% in size
# Outline: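 Yes1 (4 nM) preincubated 20 min with compound, then 60 min room-temperature reaction with 0.1 mM ATP and 0.3 mg/mL poly(E4Y) in pH 7.5 Tris, 10 mM MgCl2. ADP measured by ADP-Glo luminescence, normalised to enzyme/no-enzyme controls.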
# [11] = qHTS of pediatric cancer cell lines to identify multiple opportunities for drug repurposing: Confirmatory screen for A673 cells (AID 1347110);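 also: cells exposed to compound for 48 h before the viability read; nearly all actives have a fitted effect of over 65% in size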
# Outline: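 Cells plated at 500-1,000/well were treated five hours later with multi-point dilutions up to 46 µM final. After two days, CellTiter-Glo was added and luminescence read.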
# [12] = qHTS of pediatric cancer cell lines to identify multiple opportunities for drug repurposing: Primary screen for OHS-50 cells (AID 1347103); also: nearly all actives have a fitted effect of over 40% in size
# Outline: as §1
# [13] = Quantitative High-Throughput drug screen in 47 multiple myeloma cell lines against the NCATS MIPE library collection: MM1S_ATCC cell viability assay (AID 1918980); also: nearly all actives have a fitted effect of over 45% in size
# Outline: as §3
# [14] = qHTS of pediatric cancer cell lines to identify multiple opportunities for drug repurposing: Confirmatory screen for LAN-5 cells (AID 1347113); also: nearly all actives have a fitted effect of over 65% in size
# Outline: as §1
# [15] = Quantitative High-Throughput drug screen in 47 multiple myeloma cell lines against the NCATS MIPE library collection: Karpas25_ECACC cell viability assay (AID 1918968; also: nearly all actives have a fitted effect of over 35% in size)
# Outline: as §2
# [16] = target: Phospholipid hydroperoxide glutathione peroxidase GPX4 (Homo sapiens) (UniProt P36969); assay: Primary qHTS Assay for Inhibitors of Recombinant Selenoprotein Glutathione Peroxidase 4 (GPX4) (AID 1845192); also: nearly all actives have a fitted effect of over 65% in size
# Outline: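 NADPH consumption, followed by fluorescence at 340/450 nm between 0 and 15 min, reports GPX4 activity via coupled glutathione reductase (100 nM). Enzyme 200 nM was pre-exposed to compound 30 min; 0.5 mM cumene hydroperoxide and 1 mM GSH served as substrates.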
# Potency is read from the fitted curve at half-maximal effect.
compound,measurement,setting,value
Cn1c(=O)n(-c2ccc(C(C)(C)C#N)cc2)c2c3cc(-c4cnc5ccccc5c4)ccc3ncc21,Potency,[1],"inconclusive: 3690 nM [cytotoxic, partial curve]"
same,Potency,[2],"inconclusive: 827 nM [cytotoxic, full curve, poor fit]"
same,Potency,[3],active: 7370 nM
same,Potency,[4],"inconclusive: 737 nM [cytotoxic, full curve]"
same,Potency,[5],active: 2930 nM
same,Potency,[6],"inconclusive: 1170 nM [cytotoxic, full curve]"
same,Potency,[7],active: 2330 nM
same,Potency,[8],"inconclusive: 23.5 nM [cytotoxic, full curve]"
same,Potency,[9],"inconclusive: 14.8 nM [cytotoxic, full curve]"
same,Potency,C33A,"inconclusive: 1120 nM [cytotoxic, full curve]"
same,Potency,Es-2,"inconclusive: 1260 nM [cytotoxic, full curve]"
same,Potency,Tov112D,"inconclusive: 1000 nM [cytotoxic, full curve]"
Cc1nnc(C(C)C)n1C1CC2CCC(C1)N2CC[C@H](NC(=O)C1CCC(F)(F)CC1)c1ccccc1 (stereo partly drawn),Potency,[10],"inconclusive: 34500 nM [inhibitor, partial curve]"
c1cc(-c2cnn3cc(-c4ccc(OCCN5CCCCC5)cc4)cnc23)ccn1,Potency,[8],active: 2090 nM
same,Potency,[9],active: 2350 nM
CCN(CCCO)CCCOc1ccc2c(Nc3cc(CC(=O)Nc4cccc(F)c4)[nH]n3)ncnc2c1,Potency,[10],active: 387 nM
COc1cc2c(Oc3ccc(-c4cnc(Nc5ccc(F)cc5)n(C)c4=O)cc3F)ccnc2cc1OCCCN1CCOCC1,Potency,[11],active: 4140 nM
same,Potency,[2],active: 11700 nM
same,Potency,[4],"inconclusive: 13100 nM [cytotoxic, partial curve]"
same,Potency,[8],active: 935 nM
same,Potency,Es-2,"inconclusive: 7080 nM [cytotoxic, single point]"
same,Potency,Tov112D,"inconclusive: 31600 nM [cytotoxic, single point]"
"Cc1c2oc3c(C)ccc(C(=O)N[C@@H]4C(=O)NC(C(C)C)C(=O)N5CCC[C@H]5C(=O)N(C)CC(=O)N(C)C(C(C)C)C(=O)O[C@@H]4C)c3nc-2c(C(=O)N[C@@H]2C(=O)NC(C(C)C)C(=O)N3CCC[C@H]3C(=O)N(C)CC(=O)N(C)C(C(C)C)C(=O)O[C@@H]2C)c(N)c1=O (stereo partly drawn) (I: T[ξV]P[Sar][ξNMeV] / II: T[ξV]P[Sar][ξNMeV]; ester I:1-I:C, II:1-II:C; linker I:N-II:N via Actinocin(9to1))",Potency,[10],inactive
COc1ccc(COc2cc3oc(=O)c4cc(C(C)O)ccc4c3cc2OC)cc1 (stereo not drawn),Potency,[12],"inconclusive: 15300 nM [cytotoxic, partial curve]"
COc1ccc(C=Cc2cc(OC)c(OC)c(OC)c2)cc1O,Potency,[1],"inconclusive: 26.1 nM [cytotoxic, full curve]"
same,Potency,[2],active: 73.7 nM
same,Potency,[3],active: 14.7 nM
same,Potency,[8],inactive
same,Potency,[13],"inconclusive: 2.1 nM [cytotoxic, full curve]"
Nc1nc(Cl)nc2c1ncn2[C@H]1C[C@H](O)[C@@H](CO)O1,Potency,[14],"inconclusive: 1310 nM [cytotoxic, full curve]"
same,Potency,[3],"inconclusive: 827 nM [cytotoxic, full curve]"
same,Potency,[6],inactive
same,Potency,[7],inactive
same,Potency,[15],"inconclusive: 935 nM [cytotoxic, full curve]"
CC(C)OC(=O)C1=CN(C(=O)c2ccc(F)c(F)c2)CC(C)(C)c2c1[nH]c1ccccc21,Potency,[15],inactive
same,Potency,[13],"inconclusive: 9.3 nM [rising, full curve]"
Cc1[nH]c2ccccc2c1CCNCc1ccc(C=CC(=O)NO)cc1,Potency,[12],active: 153 nM
same,Potency,[2],"inconclusive: 465 nM [cytotoxic, full curve, poor fit]"
same,Potency,[3],active: 369 nM
same,Potency,[4],"inconclusive: 522 nM [cytotoxic, full curve]"
same,Potency,[5],"inconclusive: 4.1 nM [cytotoxic, full curve, poor fit]"
same,Potency,[6],active: 165 nM
same,Potency,[7],"inconclusive: 5.2 nM [cytotoxic, full curve, poor fit]"
same,Potency,[9],active: 52.6 nM
C=CC(=O)N1CCC[C@@H](n2nc(-c3ccc(Oc4ccccc4)cc3)c3c(N)ncnc32)C1,Potency,[11],"inconclusive: 20800 nM [cytotoxic, single point]"
same,Potency,[14],"inconclusive: 26100 nM [cytotoxic, single point]"
same,Potency,[2],"inconclusive: 20800 nM [cytotoxic, partial curve]"
same,Potency,[5],"inconclusive: 32900 nM [cytotoxic, single point]"
same,Potency,[6],"inconclusive: 23300 nM [cytotoxic, partial curve]"
same,Potency,[7],active: 10400 nM
same,Potency,[16],"inconclusive: 25500 nM [inhibitor, partial curve]"
O=C(NCCCNc1nc(Nc2cccc(NC(=O)N3CCCC3)c2)ncc1I)c1cccs1,Potency,[8],active: 4690 nM
same,Potency,[9],active: 5900 nM
CC(C)c1ccc(Cn2ccc3c4c(N)nc(NC5CC5)nc4ccc32)cc1,Potency,[10],"inconclusive: 137 nM [inhibitor, full curve, poor fit]"
same,Potency,[12],active: 4850 nM
same,Potency,[16],active: 18000 nM
NC(=O)c1c(OCc2c(F)cc(Br)cc2F)nsc1NC(=O)NCCCCN1CCCC1,Potency,[12],active: 24300 nM
same,Potency,Tov112D,"inconclusive: 12600 nM [cytotoxic, partial curve]"

# Another view of part of the listing above.
compound	measurement	setting	value
C=CC(=O)N1CCC[C@@H](n2nc(-c3ccc(Oc4ccccc4)cc3)c3c(N)ncnc32)C1	Potency	[14]	inconclusive: 26100 nM [cytotoxic, single point]
same	Potency	[2]	inconclusive: 20800 nM [cytotoxic, partial curve]

# Another view of part of the listing above:
compound	measurement	setting	value
Cc1nnc(C(C)C)n1C1CC2CCC(C1)N2CC[C@H](NC(=O)C1CCC(F)(F)CC1)c1ccccc1 (stereo partly drawn)	Potency	[10]	inconclusive: 34500 nM [inhibitor, partial curve]
C=CC(=O)N1CCC[C@@H](n2nc(-c3ccc(Oc4ccccc4)cc3)c3c(N)ncnc32)C1	Potency	[5]	inconclusive: 32900 nM [cytotoxic, single point]
